No constants are given. Whether binding was seen depends on the method and setting. In cells and extracts the contact can be indirect. Some results given as binding are weak or reduced against the parent protein; the word gives no strength.
Target: T1, α-carboxyltransferase (α-CT) subunit of hetACCase, AT2G38040, Arabidopsis thaliana (Arabidopsis thaliana) (UniProt Q9LD43)
T1 sequence: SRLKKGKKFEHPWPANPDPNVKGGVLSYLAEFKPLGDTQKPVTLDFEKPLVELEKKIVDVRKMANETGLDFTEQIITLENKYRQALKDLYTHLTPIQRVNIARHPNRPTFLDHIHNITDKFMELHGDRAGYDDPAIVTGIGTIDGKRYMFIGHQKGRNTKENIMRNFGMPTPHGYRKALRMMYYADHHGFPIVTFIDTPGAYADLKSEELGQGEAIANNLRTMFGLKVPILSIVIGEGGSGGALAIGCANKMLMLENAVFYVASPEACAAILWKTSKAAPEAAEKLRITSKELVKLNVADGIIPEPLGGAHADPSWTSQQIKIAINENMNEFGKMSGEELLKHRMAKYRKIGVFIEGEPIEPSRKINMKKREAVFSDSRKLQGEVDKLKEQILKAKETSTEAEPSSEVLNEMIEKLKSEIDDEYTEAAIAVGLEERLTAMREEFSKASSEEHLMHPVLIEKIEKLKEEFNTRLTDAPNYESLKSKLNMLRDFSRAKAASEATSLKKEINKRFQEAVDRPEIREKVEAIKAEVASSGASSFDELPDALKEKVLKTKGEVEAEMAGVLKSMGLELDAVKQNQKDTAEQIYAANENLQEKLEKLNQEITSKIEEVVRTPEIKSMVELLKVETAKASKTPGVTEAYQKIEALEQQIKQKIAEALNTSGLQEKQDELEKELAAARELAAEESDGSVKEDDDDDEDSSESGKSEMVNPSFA
Experiment: co-IP from chloroplast lysate with anti-α-CT antibody, LC-MS/MS

B1: β-carboxyltransferase (β-CT) subunit of hetACCase, ATCG00500, Arabidopsis thaliana (enzyme, UniProt P56765 1-488, looked up)
chain: MEKSWFNFMFSKGELEYRGELSKAMDSFAPGEKTTISQDRFIYDMDKNFYGWDERSSYSSSYSNNVDLLVSSKDIRNFISDDTFFVRDSNKNSYSIFFDKKKKIFEIDNDFSDLEKFFYSYCSSSYLNNRSKGDNDLHYDPYIKDTKYNCTNHINSCIDSYFRSYICIDNNFLIDSNNFNESYIYNFICSESGKIRESKNYKIRTNRNRSNLISSKDFDITQNYNQLWIQCDNCYGLMYKKVKMNVCEQCGHYLKMSSSERIELLIDPGTWNPMDEDMVSADPIKFHSKEEPYKNRIDSAQKTTGLTDAVQTGTGQLNGIPVALGVMDFRFMGGSMGSVVGEKITRLIEYATNQCLPLILVCSSGGARMQEGSLSLMQMAKISSVLCDYQSSKKLFYISILTSPTTGGVTASFGMLGDIIIAEPYAYIAFAGKRVIEQTLKKAVPEGSQAAESLLRKGLLDAIVPRNLLKGVLSELFQLHAFFPLNTN
- binding: binds

Source: patent publication US20230416760A1 (CURATORS OF THE UNIVERSITY OF MISSOURI, published 2023)
